US7655374B2, “Fixing liquid, toner fixing method and apparatus, and image forming method and apparatus” (Ricoh Company, Ltd., priority 2005, dated 2010)

Test: odor intensity index from a triangle odor bag method (sensory measurement)
Conditions: single component of the fixing liquid; 10×log(dilute strength at which the odor cannot be sensed)

Compared with `CCCCCCCCCCCC` [n-dodecane], `CC(C)COC(=O)CCCCC(=O)OCC(C)C` [diisobutyl adipate] is higher in odor intensity index: 0 for the first, 13 for the second.

Going from `CCCCCCCCCCC` [n-undecane] to `CCCCOC(=O)CCCCCCCCC(=O)OCCCC` [dibutyl sebacate], the odor intensity index rises from 0 to 13.

Going from `CCCCCCCCCCCC(=O)OCC` [ethyl laurate] to diethoxyethyl sebacate, the odor intensity index falls from 13 to 1.
